Article PMC6744478
These are yes or no findings as the source states them, for the method shown. For some assays here: In cells and extracts the contact can be indirect. Some binding calls cover weakened binding; strength is not graded here.

Sequences of proteins named here, by UniProt entry; tags and fusion partners are left off. A change or cut given only in a name is not applied to a line headed by its entry. A line that says so, or that is headed by a name, gives the form on record, which may keep a tag or linker.
UniProt Q6MZT1: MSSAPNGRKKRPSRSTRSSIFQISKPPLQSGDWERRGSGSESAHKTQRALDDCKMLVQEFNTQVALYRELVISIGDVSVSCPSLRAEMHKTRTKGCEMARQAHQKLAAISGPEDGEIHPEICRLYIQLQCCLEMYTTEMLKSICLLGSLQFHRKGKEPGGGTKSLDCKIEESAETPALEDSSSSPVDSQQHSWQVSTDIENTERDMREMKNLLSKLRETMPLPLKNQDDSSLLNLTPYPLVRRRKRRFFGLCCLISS
R7BP-HIS (Q6MZT1, form named): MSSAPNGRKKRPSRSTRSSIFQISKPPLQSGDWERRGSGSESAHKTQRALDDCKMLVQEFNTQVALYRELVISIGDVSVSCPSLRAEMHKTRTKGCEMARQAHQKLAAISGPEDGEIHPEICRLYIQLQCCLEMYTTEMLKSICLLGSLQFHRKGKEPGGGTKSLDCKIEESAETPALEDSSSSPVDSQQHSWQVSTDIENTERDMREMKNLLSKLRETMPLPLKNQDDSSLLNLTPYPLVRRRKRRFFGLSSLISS
UniProt O94810: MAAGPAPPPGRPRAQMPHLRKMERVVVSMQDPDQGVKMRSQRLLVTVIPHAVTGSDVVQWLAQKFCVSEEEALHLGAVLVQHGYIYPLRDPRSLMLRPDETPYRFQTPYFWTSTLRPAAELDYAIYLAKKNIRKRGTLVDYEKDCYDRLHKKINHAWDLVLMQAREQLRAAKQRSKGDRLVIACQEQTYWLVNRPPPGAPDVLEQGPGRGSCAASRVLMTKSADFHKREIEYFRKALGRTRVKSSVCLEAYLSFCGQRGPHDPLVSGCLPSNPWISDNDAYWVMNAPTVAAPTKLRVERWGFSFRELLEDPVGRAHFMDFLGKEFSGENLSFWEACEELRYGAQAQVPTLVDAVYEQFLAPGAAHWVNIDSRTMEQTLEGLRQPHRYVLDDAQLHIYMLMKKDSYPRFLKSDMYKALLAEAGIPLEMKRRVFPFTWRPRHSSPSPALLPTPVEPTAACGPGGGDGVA

What was measured:
[1] = target: T1, RGS7/TS-Gβ5 duplex (human) (UniProt P49802+O14775); experiment: pull-down; Expi293 cells co-transfected with RGS7, TS-Gβ5, R7BP-HIS and either WDR61 (sample A) or R7BPΔNC (sample B); lysate on MagStrep type3 XT beads, 4 °C, one hour; Western blot with anti-Gβ5 and anti-R7BP, bands quantified
T1 sequence 1: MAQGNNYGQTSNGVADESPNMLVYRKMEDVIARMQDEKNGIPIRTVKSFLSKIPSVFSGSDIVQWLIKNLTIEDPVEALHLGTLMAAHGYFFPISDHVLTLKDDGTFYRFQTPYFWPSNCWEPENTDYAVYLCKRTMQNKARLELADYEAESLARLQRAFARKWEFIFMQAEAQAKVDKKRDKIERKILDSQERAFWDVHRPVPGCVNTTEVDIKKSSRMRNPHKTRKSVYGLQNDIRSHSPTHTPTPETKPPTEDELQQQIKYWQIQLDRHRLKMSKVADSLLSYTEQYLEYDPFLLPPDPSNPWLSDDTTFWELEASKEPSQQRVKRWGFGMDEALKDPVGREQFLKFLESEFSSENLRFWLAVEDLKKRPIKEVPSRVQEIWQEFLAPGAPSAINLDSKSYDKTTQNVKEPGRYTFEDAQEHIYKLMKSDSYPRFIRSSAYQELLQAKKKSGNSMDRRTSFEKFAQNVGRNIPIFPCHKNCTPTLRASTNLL
T1 sequence 2: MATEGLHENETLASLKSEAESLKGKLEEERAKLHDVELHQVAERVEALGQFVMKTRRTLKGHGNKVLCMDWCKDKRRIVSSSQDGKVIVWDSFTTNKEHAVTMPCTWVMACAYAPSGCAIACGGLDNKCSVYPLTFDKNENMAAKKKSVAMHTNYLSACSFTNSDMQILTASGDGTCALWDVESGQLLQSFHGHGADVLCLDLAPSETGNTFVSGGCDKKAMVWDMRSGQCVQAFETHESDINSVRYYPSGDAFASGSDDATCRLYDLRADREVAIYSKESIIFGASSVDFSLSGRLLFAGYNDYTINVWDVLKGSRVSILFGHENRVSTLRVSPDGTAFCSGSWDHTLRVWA

[2] = target: Gβ5 (GNB5, short form), N-terminally tagged (human) (UniProt O14775); experiment: co-purification; R7-RGS protein expressed with N-terminally HIS- or TS-tagged Gβ5 in Expi293 cells; duplex purified on HisTrap HP or StrepTrap HP (washes with ATP/MgCl2 and 4.5 M NaCl), SEC if needed

Substance | binding [1] | binding [2]
R7BP-HIS (from UniProt Q6MZT1 1-257) | binds | –
RGS11 (from UniProt O94810 1-467) | – | binds
